The assay concerns the target HA-tagged EBNA2 (wt) (Epstein-Barr virus) (UniProt P12978). Nature of the assay: affinity purification with mass spectrometry.

Protein sequences, listed by entry. Tags and fused reporters are not part of them.
UniProt P12978, whole entry: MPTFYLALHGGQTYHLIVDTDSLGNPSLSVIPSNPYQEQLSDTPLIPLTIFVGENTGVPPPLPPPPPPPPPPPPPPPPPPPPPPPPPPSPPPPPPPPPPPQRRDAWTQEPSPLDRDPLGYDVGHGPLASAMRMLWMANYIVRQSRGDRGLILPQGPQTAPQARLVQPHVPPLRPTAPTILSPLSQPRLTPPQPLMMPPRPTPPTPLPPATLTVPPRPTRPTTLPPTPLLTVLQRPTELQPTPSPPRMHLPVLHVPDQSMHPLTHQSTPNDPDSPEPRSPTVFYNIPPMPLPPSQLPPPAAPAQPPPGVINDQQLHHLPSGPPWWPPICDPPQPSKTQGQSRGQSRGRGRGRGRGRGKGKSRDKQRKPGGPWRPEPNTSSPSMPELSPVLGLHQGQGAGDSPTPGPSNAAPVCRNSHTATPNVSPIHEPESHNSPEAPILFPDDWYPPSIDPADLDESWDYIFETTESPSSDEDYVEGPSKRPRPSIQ

No constants are given. Whether binding was seen depends on the method and setting. In cells and extracts the contact can be indirect. Here binding means that the protein was enriched with, or labelled near, the bait; the list need not be complete.

In the case of CBF1/RBPJ (from UniProt Q06330 1-500), the binding result is reported as “binds”.

For the origin of these results see publication doi:10.1101/2021.03.29.437455.
